Measured values: publication PMC10163288
The list shows a part of the results.

B1: il2ra_site2_3nfp_sap_18_mot_HHH_b1_07556_000000077_0001_42_55_H_._HHH_b2_04115_af2_0001_0000100001_0000001_0_0001 (protein)
chain: SSSSSKAEEYIRVALEAVEELLKAGDPEAAERVLHIAKLAAESRNNEELQELIERLEEEVKSSSS
B2: il2ra_site2_2erj_sap_19_mot_HHH_b1_03609_af2_000000077_0001_42_55_H_._HHH_b1_01357_0001_0000200011_0000001_0_0001 (protein)
chain: SSSSSSVEEEVRELLEEAERAYEEGDLHRVYELAVEALRVAARNNDREALRLIREVMERLSSSSS
B3: il2ra_site2_3nfp_sap_21_mot_HHH_b1_05627_af2_000000038_0001_43_56_H_._HHH_b2_05082_0001_0000600020_0000001_0_0001 (protein)
chain: SSSSDERVERSVEYAKAVAKLIPDPELREELERLAEELEEHGDPRLLQELSELILEIANKQSSSS
B4: il2ra_site1_3nfp_normal_mot_HHH_b1_08357_af2_000000270_0001_1_19_H_._HHH_b2_06876_af2_0001_0000400023_0000001_0 (protein)
chain: SSSSDERAEEFWRLIRELIEAQKEGDEELAKELAERLEELARERNDETAERSVERLLELLRSSSS
B5: il2ra_site1_1z92_sap_29_mot_HHH_b2_01810_000000233_0001_40_54_H_._HHH_b1_02670_af2_0001_0000100011_0000001_0_0001 (protein)
chain: SSSSSLERSARIIVRIAVEIAGLSEEQEKLLEELAEELIERGLDFQELLKELDKLAVKLASSSSS
B6: il2ra_site2_2erj_sap_12_mot_HHH_b2_05633_000000270_0001_38_52_H_._HHH_b2_02572_0001_0000100008_0000001_0_0001 (protein)
chain: DEEEEVEELLERLAERAGVPQVEVENRNGTFHITIEGDNYAARTLEAAAEWFLKASGIPVEVTVE
B7: il2ra_site2_3nfp_sap_19_mot_HHH_b2_07498_000000057_0001_1_14_H_._HHH_b2_01176_0001_0000300017_0000001_0_0001 (protein)
chain: SSSSDREERLEKLLEELEELIRKNDEEEVRRLSAEIAHLAFENNDFEIFFKLAELLYEFASSSSS
B8: il2ra_site2_2erj_sap_22_mot_8fa6976bf83f87873b50afdd12020151_0001_1_000000155_0001_14_31_H_._HHH_b1_03742_af2_0001_0000100001_0000001_0_0001 (protein)
chain: SSSSDVEEALIRNALLLARELLEEGNPEEAEQVVRAAISYAEAANDEELLEEARQLLEEIGSSSS
B9: il2ra_site1_3nfp_sap_12_mot_HHH_b1_07180_af2_000000260_0001_1_19_H_._HHH_b2_05487_0001_0000100013_0000001_0_0001 (protein)
chain: DEEEIIREAVESMAEFANIPSVTVESSNGKFHVEIEGDDIEARAVSKLIEDAARAAGIDVTVEYE
B10: il2ra_site1_2b5i_normal_mot_2cbe48e66a1f39b3fed734b245ab0a04_0001_000000015_0001_17_31_H_._HHH_b2_07797_0001_0000200006_0000001_0_af2pred_dldesign_0_af2pred (protein)
chain: SSSSSSREEVRAEVERLLEEARKLEDPIEQNRLLYEALYLARKAKDPELIAKVERVAKELSSSSS

Target: il2ra, P01589
Assay: yeast display titration

Apparent Kd, inactive:
B1 no binding seen, B2 no binding seen, B3 no binding seen, B4 no binding seen, B5 no binding seen, B6 no binding seen, B7 no binding seen, B8 no binding seen, B9 no binding seen, B10 no binding seen
